According to patent publication US20130158238A1 (THERACLONE SCIENCES, published 2013):
Results are given in words; binding and its absence hold for the method and conditions named. Some binding calls cover weakened binding; strength is not graded here.

The chains behind the UniProt entries cited, without tags or fusion partners.
UniProt P06821: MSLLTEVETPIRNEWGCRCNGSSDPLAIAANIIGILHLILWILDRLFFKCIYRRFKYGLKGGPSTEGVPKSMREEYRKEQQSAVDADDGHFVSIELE

Columns and labels:
[1] = target: M2 protein on influenza A/Puerto Rico/8/34 (H1N1) virus particles (Influenza A virus A/Puerto Rico/8/34 (H1N1)) (UniProt P06821); assay: ELISA on virus, crude supernatants
[2] = target: M2 protein on influenza A/Puerto Rico/8/34 (H1N1) virus particles (Influenza A virus A/Puerto Rico/8/34 (H1N1)) (UniProt P06821); assay: ELISA on PR8 virus, crude supernatants

Row | Binder | binding [1] | binding [2]
1 | 8i10 (antibody, V domains shown) VH: QVQLQESGPGLVKPSETLSLTCTVSGSSISNYYWSWIRQSPGKGLEWIGFIYYGGNTKYNPSLKSRVTISQDTSKSQVSLTMSSVTAAESAVYFCARASCSGGYCILDYWGQGTLVTVS VL: DIQMTQSPSSLSASVGDRVTITCRASQNIYKYLNWYQQRPGKAPKGLISAASGLQSGVPSRFSGSGSGTDFTLTITSLQPEDFATYYCQQSYSPPLTFGGGTRVEIK | binds | binds
2 | 21B15 (antibody, V domains shown) VH: QVQLQESGPGLVKPSETLSLTCTVSGSSISNYYWSWIRQSPGKGLEWIGFIYYGGNTKYNPSLKSRVTISQDTSKSQVSLTMSSVTAAESAVYFCARASCSGGYCILDYWGQGTLVTVS VL: DIQVTQSPSSLSASVGDRVTITCRASQNIYKYLNWYQQRPGKAPKGLISAASGLQSGVPSRFSGSGSGTDFTLTITSLQPEDFATYYCQQSYSPPLTFGGGTRVDIK | binds | binds
